In the supplement of paper PMC10849652:
The other results are listed elsewhere or left out.

By UniProt entry, the sequences of proteins in these tests, tags left out. Where a name states a change or a piece, a line headed by the entry shows the natural chain unless it says otherwise.
UniProt O94955, whole entry, looked up: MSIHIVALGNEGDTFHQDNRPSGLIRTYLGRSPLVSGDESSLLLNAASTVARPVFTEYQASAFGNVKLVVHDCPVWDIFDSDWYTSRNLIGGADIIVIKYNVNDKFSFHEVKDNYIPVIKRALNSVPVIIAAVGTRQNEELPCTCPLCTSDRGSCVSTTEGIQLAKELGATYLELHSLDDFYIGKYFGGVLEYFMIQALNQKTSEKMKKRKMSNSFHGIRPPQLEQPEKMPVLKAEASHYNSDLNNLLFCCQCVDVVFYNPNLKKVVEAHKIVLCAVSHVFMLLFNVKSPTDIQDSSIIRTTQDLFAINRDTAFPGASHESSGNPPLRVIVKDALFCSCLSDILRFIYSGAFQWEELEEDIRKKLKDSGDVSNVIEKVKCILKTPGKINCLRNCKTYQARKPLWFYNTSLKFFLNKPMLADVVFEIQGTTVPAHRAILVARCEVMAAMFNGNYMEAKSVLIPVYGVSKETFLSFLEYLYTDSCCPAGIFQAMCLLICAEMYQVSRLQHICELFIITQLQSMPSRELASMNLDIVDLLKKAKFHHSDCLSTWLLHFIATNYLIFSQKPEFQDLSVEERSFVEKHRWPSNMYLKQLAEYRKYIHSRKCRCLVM
UniProt O76064: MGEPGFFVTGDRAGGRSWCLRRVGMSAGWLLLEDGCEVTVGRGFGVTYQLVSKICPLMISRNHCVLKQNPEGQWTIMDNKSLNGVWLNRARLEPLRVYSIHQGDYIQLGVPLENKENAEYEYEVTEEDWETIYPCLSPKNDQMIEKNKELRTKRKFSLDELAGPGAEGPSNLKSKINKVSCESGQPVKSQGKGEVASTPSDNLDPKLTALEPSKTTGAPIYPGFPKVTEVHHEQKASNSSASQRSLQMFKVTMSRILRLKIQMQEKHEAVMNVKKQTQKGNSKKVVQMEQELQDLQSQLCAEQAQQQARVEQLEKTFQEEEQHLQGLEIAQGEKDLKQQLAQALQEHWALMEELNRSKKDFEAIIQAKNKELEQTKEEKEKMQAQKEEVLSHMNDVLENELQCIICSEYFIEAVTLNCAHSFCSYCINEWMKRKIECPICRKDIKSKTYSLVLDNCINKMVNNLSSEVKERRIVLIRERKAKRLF
UniProt Q969X0: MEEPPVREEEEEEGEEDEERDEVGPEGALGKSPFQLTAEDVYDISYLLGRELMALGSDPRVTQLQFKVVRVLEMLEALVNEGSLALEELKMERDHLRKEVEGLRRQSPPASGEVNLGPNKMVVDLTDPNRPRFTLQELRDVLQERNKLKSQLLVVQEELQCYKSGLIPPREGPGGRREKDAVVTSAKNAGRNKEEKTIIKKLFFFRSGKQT
UniProt Q8WVD3: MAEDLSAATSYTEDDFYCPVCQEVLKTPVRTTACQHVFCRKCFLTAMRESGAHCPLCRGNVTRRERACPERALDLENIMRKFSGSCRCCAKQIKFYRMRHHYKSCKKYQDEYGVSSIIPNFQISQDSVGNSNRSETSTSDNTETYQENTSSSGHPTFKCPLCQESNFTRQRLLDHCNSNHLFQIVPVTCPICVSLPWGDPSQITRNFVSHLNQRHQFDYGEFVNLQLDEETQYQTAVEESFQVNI
UniProt Q9Y4L5, whole entry, looked up: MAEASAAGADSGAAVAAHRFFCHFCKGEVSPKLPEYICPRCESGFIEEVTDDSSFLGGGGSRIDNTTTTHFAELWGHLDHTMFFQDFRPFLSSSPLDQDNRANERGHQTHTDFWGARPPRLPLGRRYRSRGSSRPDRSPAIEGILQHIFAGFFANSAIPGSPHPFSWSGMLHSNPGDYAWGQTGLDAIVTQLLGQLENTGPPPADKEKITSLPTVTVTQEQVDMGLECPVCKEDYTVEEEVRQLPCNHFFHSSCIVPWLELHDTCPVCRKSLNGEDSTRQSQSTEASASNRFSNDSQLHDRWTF
UniProt P60602: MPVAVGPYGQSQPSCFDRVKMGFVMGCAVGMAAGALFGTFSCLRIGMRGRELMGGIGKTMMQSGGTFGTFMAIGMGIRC
UniProt Q13129: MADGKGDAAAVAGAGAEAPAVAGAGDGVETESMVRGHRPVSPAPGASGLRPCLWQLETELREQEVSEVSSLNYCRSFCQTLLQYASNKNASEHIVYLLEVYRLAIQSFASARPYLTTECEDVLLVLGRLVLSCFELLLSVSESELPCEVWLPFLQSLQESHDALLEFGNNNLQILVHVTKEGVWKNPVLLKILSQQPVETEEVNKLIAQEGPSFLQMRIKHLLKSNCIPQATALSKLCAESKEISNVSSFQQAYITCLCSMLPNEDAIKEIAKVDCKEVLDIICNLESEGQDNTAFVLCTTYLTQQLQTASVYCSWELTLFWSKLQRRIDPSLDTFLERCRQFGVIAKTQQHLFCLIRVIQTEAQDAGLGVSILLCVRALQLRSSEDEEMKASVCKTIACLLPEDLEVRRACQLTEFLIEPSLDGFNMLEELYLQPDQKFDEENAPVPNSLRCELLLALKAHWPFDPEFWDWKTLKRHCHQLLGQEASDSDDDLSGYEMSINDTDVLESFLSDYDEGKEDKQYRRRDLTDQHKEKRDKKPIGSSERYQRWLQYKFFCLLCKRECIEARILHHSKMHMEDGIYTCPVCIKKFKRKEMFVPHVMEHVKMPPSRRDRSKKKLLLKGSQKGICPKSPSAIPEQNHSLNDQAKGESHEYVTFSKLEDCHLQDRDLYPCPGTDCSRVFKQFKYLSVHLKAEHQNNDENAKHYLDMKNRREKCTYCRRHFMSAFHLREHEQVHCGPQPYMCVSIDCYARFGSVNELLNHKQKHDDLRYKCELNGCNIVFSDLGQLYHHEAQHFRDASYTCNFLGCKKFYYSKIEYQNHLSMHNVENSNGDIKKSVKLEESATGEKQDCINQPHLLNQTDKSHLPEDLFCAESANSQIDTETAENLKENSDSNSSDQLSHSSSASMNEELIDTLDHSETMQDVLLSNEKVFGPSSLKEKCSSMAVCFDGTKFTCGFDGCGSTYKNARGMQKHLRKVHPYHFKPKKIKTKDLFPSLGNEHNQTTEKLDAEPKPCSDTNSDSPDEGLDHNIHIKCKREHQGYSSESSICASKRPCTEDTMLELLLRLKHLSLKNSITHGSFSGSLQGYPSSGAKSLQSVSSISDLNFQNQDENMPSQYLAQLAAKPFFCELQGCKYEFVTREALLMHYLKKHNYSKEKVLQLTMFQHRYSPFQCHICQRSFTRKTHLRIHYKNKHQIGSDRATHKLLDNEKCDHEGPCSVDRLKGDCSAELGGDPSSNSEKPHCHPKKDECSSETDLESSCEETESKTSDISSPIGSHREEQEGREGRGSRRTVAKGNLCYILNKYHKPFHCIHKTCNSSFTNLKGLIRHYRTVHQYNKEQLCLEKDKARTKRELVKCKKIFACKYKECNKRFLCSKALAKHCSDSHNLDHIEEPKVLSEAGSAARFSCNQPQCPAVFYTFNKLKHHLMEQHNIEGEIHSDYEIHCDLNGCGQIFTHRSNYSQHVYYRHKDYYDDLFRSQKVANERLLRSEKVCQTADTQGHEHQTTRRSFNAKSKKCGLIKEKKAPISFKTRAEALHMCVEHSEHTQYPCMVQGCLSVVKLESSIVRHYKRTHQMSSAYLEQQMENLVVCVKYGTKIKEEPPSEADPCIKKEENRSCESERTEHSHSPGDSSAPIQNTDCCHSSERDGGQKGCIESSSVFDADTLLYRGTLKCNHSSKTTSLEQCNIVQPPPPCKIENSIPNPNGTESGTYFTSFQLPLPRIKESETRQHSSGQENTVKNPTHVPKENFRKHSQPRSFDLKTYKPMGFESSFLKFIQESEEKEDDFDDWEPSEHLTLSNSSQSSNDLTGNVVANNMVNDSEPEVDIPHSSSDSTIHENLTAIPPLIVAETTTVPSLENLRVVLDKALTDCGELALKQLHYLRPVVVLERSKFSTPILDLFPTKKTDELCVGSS
UniProt P08922: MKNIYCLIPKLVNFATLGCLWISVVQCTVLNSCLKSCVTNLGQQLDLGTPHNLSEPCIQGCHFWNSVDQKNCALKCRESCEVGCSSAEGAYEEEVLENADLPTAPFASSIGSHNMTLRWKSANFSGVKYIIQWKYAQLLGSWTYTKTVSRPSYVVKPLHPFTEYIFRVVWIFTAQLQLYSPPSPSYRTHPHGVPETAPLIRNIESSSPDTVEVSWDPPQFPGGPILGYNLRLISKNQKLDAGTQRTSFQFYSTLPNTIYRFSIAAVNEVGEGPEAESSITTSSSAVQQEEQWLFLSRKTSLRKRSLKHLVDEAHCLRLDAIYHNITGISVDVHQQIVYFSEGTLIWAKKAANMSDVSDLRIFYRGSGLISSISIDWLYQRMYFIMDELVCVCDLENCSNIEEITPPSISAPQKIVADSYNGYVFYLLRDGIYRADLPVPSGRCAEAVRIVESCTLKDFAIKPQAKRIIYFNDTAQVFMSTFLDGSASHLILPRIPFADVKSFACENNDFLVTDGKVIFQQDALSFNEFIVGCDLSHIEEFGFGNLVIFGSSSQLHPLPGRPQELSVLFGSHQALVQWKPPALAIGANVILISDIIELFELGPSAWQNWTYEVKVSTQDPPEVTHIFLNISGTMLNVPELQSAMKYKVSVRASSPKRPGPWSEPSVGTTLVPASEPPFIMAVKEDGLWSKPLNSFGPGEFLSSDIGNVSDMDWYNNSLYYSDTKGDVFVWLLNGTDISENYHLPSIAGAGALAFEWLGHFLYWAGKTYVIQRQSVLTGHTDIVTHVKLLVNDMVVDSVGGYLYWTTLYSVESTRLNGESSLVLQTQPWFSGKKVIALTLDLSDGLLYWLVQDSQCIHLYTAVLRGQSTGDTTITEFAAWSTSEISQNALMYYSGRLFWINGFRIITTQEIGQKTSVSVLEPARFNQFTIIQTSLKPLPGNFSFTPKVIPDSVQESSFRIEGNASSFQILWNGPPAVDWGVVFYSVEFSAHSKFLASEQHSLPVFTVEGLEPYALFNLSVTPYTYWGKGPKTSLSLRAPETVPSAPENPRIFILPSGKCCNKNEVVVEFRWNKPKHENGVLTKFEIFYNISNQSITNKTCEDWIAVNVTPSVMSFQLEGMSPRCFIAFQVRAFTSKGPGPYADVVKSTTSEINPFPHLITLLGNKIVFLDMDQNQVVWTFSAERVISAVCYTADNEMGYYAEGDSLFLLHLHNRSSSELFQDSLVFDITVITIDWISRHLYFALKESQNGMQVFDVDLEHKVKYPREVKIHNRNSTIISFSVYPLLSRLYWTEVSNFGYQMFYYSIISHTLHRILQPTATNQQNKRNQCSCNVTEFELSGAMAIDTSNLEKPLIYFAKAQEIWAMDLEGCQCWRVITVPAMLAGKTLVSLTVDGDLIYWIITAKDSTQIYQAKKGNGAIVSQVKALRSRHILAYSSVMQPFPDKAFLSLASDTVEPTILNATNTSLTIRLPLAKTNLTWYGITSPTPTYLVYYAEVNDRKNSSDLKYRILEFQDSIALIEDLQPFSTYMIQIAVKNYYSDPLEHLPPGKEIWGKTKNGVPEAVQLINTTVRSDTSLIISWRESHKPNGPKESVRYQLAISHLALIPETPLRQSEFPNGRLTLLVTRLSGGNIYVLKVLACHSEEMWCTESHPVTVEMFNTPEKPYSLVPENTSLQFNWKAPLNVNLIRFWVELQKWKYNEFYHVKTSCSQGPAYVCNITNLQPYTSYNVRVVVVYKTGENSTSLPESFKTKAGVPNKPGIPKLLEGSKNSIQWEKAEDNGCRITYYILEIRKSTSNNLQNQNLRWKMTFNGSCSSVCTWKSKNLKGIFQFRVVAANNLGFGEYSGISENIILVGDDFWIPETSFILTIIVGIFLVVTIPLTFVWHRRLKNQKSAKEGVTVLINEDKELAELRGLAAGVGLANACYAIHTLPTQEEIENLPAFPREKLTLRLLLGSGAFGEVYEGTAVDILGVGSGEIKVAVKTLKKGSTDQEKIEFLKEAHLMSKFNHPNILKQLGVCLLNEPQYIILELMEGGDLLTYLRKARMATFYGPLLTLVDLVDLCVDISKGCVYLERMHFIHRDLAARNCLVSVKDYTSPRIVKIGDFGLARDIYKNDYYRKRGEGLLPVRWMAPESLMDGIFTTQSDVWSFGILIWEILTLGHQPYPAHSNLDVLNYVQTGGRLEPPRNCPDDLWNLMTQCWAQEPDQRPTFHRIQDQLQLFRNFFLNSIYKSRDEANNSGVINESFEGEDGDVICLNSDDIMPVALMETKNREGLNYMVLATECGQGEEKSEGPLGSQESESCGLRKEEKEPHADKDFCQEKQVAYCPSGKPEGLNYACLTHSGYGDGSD
UniProt Q96K19: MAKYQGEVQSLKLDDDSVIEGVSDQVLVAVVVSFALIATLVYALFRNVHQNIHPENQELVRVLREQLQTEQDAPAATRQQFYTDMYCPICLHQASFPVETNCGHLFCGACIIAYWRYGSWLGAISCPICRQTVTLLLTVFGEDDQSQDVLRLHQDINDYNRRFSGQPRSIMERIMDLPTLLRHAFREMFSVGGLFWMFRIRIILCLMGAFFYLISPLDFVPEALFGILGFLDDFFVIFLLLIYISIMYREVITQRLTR

Each target was assayed with COc1cc2ncnc(Nc3ccc(F)c(Cl)c3)c2cc1OCCCN1CCOCC1 [gefitinib] (assay: log2 fold change, soluble protein after heating vs DMSO (PISA); higher = thermal stabilisation; K562 lysate, 10 uM; active = over 0.2 and 3.5 SD of the protein, either way, in both replicates (recomputed)).
Procedure, shortened: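 Pellets of K562 cells were dounce-homogenised in PBS pH 7.4 with 1 mM MgCl2, and the crude extract was held at 1 mg/mL protein for a 30 min treatment with 10 μM compound. Aliquots were heated for 3 min over 48°C-58°C and pooled before NP-40 was added to 0.5% at 4°C. The supernatant from 21,000xg for 90 min was quantified by TMTpro 16plex LC-MS/MS with channel sums equalised. Values are reported from duplicates as log-two fold change in thermal stability relative to solvent controls.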

log2 fold change, inactive:
RNF185 (UniProt Q96GF1) -0.003
RHOBTB3 (UniProt O94955) -0.056
RNF8 (UniProt O76064) 0.039
RILPL2 (UniProt Q969X0) -0.049
RNF138 (UniProt Q8WVD3) -0.001
RNF4 (UniProt P78317) -0.194
RNF24 isoform 2 (UniProt Q9Y225) -0.108
RNF115 (UniProt Q9Y4L5) -0.628
RNF121 (UniProt Q9H920) 0.05
ROGDI (UniProt Q9GZN7) 0.1
ROMO1 (UniProt P60602) 0.066
RNASEH2B, A0A1B0GUE7 -0.028
RNF41 (UniProt Q9H4P4) -0.166
RNPC3 (UniProt Q96LT9) -0.08
RLF (UniProt Q13129) 0.13
ROS1 (UniProt P08922) -0.051
RNASE4 (UniProt P34096) -0.012
RNF170 (UniProt Q96K19) 0.037
RPL15, A0A2R8Y738 0.288
RHPN2 (UniProt Q8IUC4) 0.205

For reference, some entries already given.
log2 fold change, inactive:
ROS1 (UniProt P08922) -0.051
RNASE4 (UniProt P34096) -0.012
RNF170 (UniProt Q96K19) 0.037
RPL15, A0A2R8Y738 0.288
